# ± gives the standard deviation of the averaged measurements. The entries are a selection whose mix differs from that of the whole data set.
# Chains of the proteins cited; added tags and fusions are not shown. Lines headed by an entry give the natural chain unless they say otherwise; changes in a name come on top.
# UniProt Q13308: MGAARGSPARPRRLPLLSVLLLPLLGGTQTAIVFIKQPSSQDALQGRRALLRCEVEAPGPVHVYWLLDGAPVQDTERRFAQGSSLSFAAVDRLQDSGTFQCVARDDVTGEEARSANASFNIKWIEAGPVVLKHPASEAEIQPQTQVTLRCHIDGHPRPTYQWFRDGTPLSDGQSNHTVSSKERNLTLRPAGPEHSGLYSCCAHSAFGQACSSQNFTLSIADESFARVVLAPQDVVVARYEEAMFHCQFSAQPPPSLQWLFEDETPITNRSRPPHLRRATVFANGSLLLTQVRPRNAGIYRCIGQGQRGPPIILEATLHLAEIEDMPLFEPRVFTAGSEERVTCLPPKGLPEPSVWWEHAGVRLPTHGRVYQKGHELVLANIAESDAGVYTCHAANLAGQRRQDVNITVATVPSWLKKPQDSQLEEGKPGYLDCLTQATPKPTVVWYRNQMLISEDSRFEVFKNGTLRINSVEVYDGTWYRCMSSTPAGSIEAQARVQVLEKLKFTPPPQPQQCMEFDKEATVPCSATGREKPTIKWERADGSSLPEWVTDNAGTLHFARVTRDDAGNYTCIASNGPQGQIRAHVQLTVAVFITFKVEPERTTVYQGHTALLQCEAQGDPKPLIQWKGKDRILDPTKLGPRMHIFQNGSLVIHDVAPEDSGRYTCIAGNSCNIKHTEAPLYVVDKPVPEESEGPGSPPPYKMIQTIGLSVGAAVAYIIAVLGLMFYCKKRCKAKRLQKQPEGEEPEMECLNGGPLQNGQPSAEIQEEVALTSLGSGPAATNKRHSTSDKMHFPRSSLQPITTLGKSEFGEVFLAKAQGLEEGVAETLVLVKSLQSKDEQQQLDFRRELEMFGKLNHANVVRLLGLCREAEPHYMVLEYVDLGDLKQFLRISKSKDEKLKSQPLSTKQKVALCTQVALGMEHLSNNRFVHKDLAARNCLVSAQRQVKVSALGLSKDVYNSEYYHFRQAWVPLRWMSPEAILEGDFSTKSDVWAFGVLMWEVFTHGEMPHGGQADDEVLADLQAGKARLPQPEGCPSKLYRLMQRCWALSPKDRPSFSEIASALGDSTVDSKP
# UniProt Q13630: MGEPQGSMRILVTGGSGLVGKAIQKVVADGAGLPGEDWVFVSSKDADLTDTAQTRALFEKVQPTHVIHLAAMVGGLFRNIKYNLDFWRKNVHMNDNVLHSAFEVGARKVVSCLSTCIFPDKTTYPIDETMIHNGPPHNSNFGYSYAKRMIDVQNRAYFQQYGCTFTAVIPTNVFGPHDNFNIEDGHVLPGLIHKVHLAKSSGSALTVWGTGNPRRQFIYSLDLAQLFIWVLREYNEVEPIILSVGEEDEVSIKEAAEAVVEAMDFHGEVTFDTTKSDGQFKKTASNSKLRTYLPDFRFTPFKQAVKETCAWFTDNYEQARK
# UniProt Q13188: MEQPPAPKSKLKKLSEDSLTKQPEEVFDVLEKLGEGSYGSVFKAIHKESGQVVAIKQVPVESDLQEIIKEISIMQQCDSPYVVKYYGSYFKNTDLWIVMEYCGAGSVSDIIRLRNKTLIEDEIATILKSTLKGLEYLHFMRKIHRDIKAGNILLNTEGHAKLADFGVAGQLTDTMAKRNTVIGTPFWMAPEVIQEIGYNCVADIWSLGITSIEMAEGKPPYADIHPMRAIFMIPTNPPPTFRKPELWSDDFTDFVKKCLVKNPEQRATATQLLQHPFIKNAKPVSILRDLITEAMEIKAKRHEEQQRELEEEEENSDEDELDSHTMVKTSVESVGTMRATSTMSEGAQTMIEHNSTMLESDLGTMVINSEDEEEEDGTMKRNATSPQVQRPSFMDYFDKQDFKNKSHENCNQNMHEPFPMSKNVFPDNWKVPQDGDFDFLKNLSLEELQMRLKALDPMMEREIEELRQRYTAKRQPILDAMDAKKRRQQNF
# UniProt Q14746: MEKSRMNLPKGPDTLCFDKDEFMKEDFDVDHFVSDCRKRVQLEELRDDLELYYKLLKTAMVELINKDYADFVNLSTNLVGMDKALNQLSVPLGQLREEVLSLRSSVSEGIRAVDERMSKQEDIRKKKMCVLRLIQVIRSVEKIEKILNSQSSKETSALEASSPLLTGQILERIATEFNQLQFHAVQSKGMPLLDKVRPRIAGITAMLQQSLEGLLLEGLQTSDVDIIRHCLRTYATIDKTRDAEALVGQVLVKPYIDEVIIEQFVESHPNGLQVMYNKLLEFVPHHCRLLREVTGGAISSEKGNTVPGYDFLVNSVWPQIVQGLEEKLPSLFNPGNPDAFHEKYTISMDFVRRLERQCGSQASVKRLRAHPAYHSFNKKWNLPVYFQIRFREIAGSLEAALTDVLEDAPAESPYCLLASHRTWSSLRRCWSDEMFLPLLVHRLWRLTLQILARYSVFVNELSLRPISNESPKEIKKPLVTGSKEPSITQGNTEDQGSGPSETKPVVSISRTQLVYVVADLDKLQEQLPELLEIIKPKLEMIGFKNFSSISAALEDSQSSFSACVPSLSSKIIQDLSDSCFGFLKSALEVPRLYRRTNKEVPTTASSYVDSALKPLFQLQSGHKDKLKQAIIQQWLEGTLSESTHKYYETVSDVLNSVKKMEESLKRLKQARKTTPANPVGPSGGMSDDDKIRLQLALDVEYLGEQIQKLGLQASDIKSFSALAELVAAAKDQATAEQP
# UniProt Q13825: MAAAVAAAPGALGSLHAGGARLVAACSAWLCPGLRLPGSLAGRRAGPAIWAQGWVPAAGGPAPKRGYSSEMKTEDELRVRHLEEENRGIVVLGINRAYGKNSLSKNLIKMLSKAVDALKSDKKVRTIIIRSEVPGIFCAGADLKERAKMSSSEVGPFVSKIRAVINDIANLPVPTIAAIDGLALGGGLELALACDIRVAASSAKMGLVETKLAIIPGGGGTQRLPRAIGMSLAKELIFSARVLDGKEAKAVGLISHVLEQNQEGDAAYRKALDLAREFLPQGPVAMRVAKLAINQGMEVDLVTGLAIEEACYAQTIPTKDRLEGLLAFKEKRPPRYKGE
# UniProt Q13045: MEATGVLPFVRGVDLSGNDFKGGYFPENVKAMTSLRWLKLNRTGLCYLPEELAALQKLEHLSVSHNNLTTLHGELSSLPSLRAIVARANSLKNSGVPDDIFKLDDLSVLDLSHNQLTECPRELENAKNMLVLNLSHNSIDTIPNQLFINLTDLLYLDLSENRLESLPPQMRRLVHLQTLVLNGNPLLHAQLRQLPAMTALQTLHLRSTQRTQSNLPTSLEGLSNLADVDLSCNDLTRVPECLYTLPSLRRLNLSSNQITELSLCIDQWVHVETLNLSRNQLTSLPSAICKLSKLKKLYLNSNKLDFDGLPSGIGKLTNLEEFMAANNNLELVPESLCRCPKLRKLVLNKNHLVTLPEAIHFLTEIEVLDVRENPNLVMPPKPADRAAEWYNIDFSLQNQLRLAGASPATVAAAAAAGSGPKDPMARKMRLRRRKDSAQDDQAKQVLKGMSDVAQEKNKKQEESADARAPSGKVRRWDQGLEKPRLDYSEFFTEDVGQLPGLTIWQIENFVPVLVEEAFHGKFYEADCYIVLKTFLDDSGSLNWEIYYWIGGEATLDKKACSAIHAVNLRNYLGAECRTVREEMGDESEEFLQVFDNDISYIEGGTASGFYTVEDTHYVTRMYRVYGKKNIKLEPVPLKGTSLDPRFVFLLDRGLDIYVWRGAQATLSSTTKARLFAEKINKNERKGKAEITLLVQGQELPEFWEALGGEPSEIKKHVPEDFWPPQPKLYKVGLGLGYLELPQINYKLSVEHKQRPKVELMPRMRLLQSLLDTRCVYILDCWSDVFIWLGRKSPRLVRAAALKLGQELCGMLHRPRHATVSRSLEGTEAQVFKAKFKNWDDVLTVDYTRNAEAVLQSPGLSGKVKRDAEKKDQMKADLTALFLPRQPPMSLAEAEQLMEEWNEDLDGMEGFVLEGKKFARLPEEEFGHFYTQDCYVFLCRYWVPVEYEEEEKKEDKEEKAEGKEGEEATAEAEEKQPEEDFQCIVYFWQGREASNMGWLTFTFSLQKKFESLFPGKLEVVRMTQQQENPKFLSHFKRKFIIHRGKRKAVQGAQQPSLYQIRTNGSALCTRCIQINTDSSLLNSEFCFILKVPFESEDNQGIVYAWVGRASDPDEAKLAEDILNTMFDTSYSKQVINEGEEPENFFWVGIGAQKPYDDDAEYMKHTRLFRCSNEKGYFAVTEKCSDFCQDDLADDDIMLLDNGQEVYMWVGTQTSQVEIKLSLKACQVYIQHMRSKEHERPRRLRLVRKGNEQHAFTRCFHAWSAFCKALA
# UniProt Q13185: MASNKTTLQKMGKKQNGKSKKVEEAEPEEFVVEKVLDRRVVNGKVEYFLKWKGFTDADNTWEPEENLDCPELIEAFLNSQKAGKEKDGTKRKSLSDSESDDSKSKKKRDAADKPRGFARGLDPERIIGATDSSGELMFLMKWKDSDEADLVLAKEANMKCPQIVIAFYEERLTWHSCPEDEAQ
# UniProt Q13042, whole entry: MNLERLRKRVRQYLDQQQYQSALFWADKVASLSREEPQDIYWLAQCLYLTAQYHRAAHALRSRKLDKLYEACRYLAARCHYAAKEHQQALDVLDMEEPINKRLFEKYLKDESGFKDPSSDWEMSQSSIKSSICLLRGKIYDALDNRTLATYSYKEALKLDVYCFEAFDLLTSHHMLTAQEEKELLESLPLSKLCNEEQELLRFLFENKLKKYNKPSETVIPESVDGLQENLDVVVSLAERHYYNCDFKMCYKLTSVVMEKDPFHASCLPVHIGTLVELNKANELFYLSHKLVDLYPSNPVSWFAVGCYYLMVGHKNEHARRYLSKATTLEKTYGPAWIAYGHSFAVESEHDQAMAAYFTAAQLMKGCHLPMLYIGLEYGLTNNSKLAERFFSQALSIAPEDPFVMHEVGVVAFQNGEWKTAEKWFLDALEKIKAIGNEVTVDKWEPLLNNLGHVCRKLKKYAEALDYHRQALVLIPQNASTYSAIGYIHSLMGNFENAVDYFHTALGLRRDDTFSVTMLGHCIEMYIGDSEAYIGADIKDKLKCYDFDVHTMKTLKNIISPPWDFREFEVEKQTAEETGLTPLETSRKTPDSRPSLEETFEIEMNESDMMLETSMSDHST
# UniProt Q14240, whole entry: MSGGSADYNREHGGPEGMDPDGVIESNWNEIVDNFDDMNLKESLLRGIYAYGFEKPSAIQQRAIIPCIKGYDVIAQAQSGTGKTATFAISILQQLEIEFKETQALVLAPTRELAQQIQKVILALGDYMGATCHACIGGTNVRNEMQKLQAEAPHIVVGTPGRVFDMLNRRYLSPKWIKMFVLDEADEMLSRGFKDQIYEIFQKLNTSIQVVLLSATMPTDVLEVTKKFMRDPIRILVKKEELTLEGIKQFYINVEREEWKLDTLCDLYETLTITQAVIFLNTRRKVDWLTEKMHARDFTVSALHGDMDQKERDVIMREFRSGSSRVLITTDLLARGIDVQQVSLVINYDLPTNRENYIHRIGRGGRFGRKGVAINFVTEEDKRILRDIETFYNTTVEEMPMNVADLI
# UniProt Q13263: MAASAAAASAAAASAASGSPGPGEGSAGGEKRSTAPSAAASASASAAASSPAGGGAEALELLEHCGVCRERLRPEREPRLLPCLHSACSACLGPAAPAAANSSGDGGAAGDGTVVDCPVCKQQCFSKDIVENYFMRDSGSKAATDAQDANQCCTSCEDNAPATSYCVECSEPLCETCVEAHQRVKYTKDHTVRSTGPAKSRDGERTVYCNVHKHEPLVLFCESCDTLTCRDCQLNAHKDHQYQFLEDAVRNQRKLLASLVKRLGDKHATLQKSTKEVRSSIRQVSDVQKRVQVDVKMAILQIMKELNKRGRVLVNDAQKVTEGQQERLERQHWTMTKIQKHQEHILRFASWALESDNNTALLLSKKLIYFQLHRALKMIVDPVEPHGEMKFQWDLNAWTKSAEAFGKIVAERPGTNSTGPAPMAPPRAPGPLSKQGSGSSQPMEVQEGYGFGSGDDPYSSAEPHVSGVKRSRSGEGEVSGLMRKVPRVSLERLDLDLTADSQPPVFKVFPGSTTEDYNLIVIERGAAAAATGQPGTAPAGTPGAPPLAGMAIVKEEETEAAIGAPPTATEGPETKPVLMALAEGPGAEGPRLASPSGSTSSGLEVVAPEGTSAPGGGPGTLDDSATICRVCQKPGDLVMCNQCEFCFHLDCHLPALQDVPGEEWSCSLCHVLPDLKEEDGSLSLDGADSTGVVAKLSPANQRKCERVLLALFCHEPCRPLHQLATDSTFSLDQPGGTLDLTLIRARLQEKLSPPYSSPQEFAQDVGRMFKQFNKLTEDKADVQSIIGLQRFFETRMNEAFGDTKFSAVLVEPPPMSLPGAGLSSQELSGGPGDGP
# UniProt Q13643: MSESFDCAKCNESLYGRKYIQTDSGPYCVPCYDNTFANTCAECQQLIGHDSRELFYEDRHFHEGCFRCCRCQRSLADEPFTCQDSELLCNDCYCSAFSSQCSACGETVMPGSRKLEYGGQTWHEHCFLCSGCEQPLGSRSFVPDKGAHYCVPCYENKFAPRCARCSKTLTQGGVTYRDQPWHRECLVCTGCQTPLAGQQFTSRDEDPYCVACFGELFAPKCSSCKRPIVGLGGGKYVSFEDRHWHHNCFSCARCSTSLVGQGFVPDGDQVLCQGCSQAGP
# Compound: Nc1ncnc2c1ncn2[C@@H]1O[C@H](COP(=O)(O)OP(=O)(O)NP(=O)(O)O)[C@@H](O)[C@H]1O [adenylyl imidodiphosphate]
# Experiment: NP40-soluble protein abundance relative to vehicle (solubility fold change) (ratio); higher = more soluble protein in presence of AMP-PNP
# Outline: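 Crude Jurkat lysate, prepared by Dounce homogenisation, was exposed to eight concentrations from 0.1 to 10 mM for 10 min at room temperature and then 3 min at 37 °C. Solubilisation used 0.8% NP40 with benzonase for 60 min at 4 °C, followed by ultracentrifugation and TMT labelling of the supernatant for LC-MS/MS. After vsn normalisation of intensities, each value is the fold change against the detergent-processed vehicle within each replicate, across three independent experiments.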
Target,NP40-soluble protein abundance (concentration: 1mM),NP40-soluble protein abundance (concentration: 2mM),NP40-soluble protein abundance (concentration: 4mM),NP40-soluble protein abundance (concentration: 6mM),NP40-soluble protein abundance (concentration: 8mM),NP40-soluble protein abundance (concentration: 10mM)
UniProt Q13308 and related entries,0.994 ± 0.014,1.05 ± 0.048,1.01 ± 0.035,1.04 ± 0.041,1.02 ± 0.015,1.07 ± 0.035
CPSF1 (UniProt Q10570),1 ± 0.025,0.942 ± 0.045,1.01 ± 0.043,1.04 ± 0.037,1.06 ± 0.046,1.04 ± 0.085
TSTA3 (UniProt Q13630),0.984 ± 0.018,0.97 ± 0.035,0.991 ± 0.078,0.974 ± 0.033,0.995 ± 0.072,0.969 ± 0.041
UniProt Q13469 and related entries,1.01 ± 0.025,1.03 ± 0.018,1.02 ± 0.03,0.986 ± 0.024,0.9525 ± 0.0032,0.991 ± 0.011
UniProt Q12770 and related entries,1 ± 0.049,0.985 ± 0.03,0.9864 ± 0.0095,0.9718 ± 0.0087,0.999 ± 0.0077,0.981 ± 0.024
UNC119 (UniProt Q13432),1.006 ± 0.0093,1.007 ± 0.0039,0.987 ± 0.018,0.986 ± 0.054,1.03 ± 0.038,1.03 ± 0.021
UniProt Q14558-2|Q14558,0.887 ± 0.093,0.828 ± 0.12,0.832 ± 0.097,0.804 ± 0.13,0.795 ± 0.1,0.801 ± 0.15
UniProt Q14669-2|Q14669-3,1.04 ± 0.03,1.07 ± 0.031,1.11 ± 0.041,1.12 ± 0.062,1.12 ± 0.031,1.18 ± 0.045
KPNB1 (UniProt Q14974),1 ± 0.023,0.999 ± 0.042,0.995 ± 0.031,1.01 ± 0.033,1.01 ± 0.048,1.02 ± 0.033
UniProt Q14696,0.96 ± 0.027,1.03 ± 0.037,0.973 ± 0.031,0.995 ± 0.032,0.94 ± 0.02,0.982 ± 0.022
UniProt Q13164,1.03 ± 0.018,1 ± 0.017,1.03 ± 0.024,0.993 ± 0.019,1 ± 0.016,1.01 ± 0.045
UniProt Q14694 and related entries,1.08 ± 0.052,1.13 ± 0.062,1.21 ± 0.12,1.25 ± 0.17,1.29 ± 0.18,1.3 ± 0.2
UniProt Q13188,1.01 ± 0.035,1.02 ± 0.02,1.02 ± 0.019,0.979 ± 0.051,0.965 ± 0.032,0.968 ± 0.036
BMS1 (UniProt Q14692),1.04 ± 0.024,1.1 ± 0.055,1.06 ± 0.024,1.08 ± 0.022,1.04 ± 0.019,1.06 ± 0.035
SUZ12 (UniProt Q15022),1.02 ± 0.022,1.05 ± 0.013,1.09 ± 0.025,1.09 ± 0.021,1.12 ± 0.025,1.16 ± 0.044
UniProt Q13428-3|Q13428-7|E7ETY2 and related entries,1.11 ± 0.056,1.26 ± 0.077,1.2 ± 0.042,1.25 ± 0.12,1.22 ± 0.06,1.28 ± 0.049
SF3A3 (UniProt Q12874),1.01 ± 0.034,1.03 ± 0.023,0.979 ± 0.041,1.03 ± 0.026,1.016 ± 0.0074,1.04 ± 0.028
SREBF2 (UniProt Q12772),0.988 ± 0.02,1.01 ± 0.031,0.969 ± 0.024,0.984 ± 0.029,0.99925 ± 0.00021,0.968 ± 0.025
UniProt Q12959-3|A0A0C4DFT3|Q12959-4,0.991 ± 0.05,0.992 ± 0.029,0.995 ± 0.014,0.961 ± 0.016,0.948 ± 0.021,0.986 ± 0.033
UniProt Q14677 and related entries,0.999 ± 0.026,1.03 ± 0.069,0.983 ± 0.052,1 ± 0.026,0.974 ± 0.03,1.03 ± 0.043

Target,NP40-soluble protein abundance (concentration: 1mM),NP40-soluble protein abundance (concentration: 2mM),NP40-soluble protein abundance (concentration: 4mM),NP40-soluble protein abundance (concentration: 6mM),NP40-soluble protein abundance (concentration: 8mM),NP40-soluble protein abundance (concentration: 10mM)
UniProt Q13332 and related entries,0.98 ± 0.01,1.03 ± 0.032,0.993 ± 0.017,0.986 ± 0.029,0.978 ± 0.053,1 ± 0.031
UniProt Q14005 and related entries,1.01 ± 0.013,1.03 ± 0.053,1 ± 0.034,0.9814 ± 0.0057,0.967 ± 0.036,0.965 ± 0.02
SLC39A6 (UniProt Q13433),1.04 ± 0.04,1.07 ± 0.082,1.02 ± 0.07,1.04 ± 0.048,1.03 ± 0.071,1.02 ± 0.043
ROCK1 (UniProt Q13464),1.03 ± 0.03,1.07 ± 0.05,1.01 ± 0.028,0.992 ± 0.042,0.961 ± 0.022,1 ± 0.045
TMEM115 (UniProt Q12893),0.973 ± 0.022,1.01 ± 0.038,0.966 ± 0.045,0.986 ± 0.025,0.982 ± 0.04,0.962 ± 0.049
UniProt Q13642-1|Q13642-4|Q13642-5,0.972 ± 0.041,0.983 ± 0.022,0.995 ± 0.025,0.996 ± 0.045,1.01 ± 0.039,0.969 ± 0.025
NNT (UniProt Q13423),0.989 ± 0.012,0.978 ± 0.037,0.964 ± 0.019,0.946 ± 0.018,0.947 ± 0.033,0.943 ± 0.025
UniProt Q14197 and related entries,1 ± 0.1,0.952 ± 0.083,0.974 ± 0.087,0.95 ± 0.13,0.978 ± 0.14,0.953 ± 0.19
UniProt Q14746 and related entries,0.962 ± 0.031,0.982 ± 0.042,0.979 ± 0.024,0.925 ± 0.04,0.918 ± 0.041,0.931 ± 0.059
UniProt Q13795 and related entries,0.98 ± 0.078,0.994 ± 0.028,0.974 ± 0.052,1.02 ± 0.076,0.991 ± 0.072,0.992 ± 0.083
UniProt Q13825 and related entries,0.995 ± 0.028,1.02 ± 0.025,1.04 ± 0.044,1.03 ± 0.015,1.04 ± 0.057,1.06 ± 0.025
UniProt Q13045 and related entries,1.005 ± 0.0082,0.958 ± 0.041,0.989 ± 0.026,1 ± 0.021,1 ± 0.013,0.964 ± 0.031
UniProt Q14157 and related entries,1.04 ± 0.019,1.12 ± 0.064,1.07 ± 0.021,1.11 ± 0.033,1.08 ± 0.013,1.13 ± 0.028
CBX3 (UniProt Q13185),0.978 ± 0.03,1.03 ± 0.023,0.984 ± 0.02,1.01 ± 0.024,1.03 ± 0.018,0.97 ± 0.024
TUBB3 (UniProt Q13509),1.06 ± 0.015,1.03 ± 0.0055,1.0269 ± 0.00018,0.962 ± 0.021,0.987 ± 0.03,1.02 ± 0.018
TARDBP (UniProt Q13148),1.01 ± 0.015,1.03 ± 0.046,0.998 ± 0.021,1.02 ± 0.018,1 ± 0.012,1.01 ± 0.029
UniProt Q13905 and related entries,1 ± 0.019,1.03 ± 0.067,0.996 ± 0.011,0.965 ± 0.024,0.982 ± 0.044,0.987 ± 0.04
GNL2 (UniProt Q13823),1 ± 0.025,1.05 ± 0.037,1.04 ± 0.015,1.05 ± 0.025,1.04 ± 0.036,1.04 ± 0.034
FAM50A (UniProt Q14320),1 ± 0.028,1.01 ± 0.061,0.982 ± 0.032,1.03 ± 0.06,0.983 ± 0.034,0.998 ± 0.093
G3BP1 (UniProt Q13283),1.1 ± 0.028,1.15 ± 0.06,1.17 ± 0.05,1.19 ± 0.087,1.2 ± 0.1,1.23 ± 0.086

Target,NP40-soluble protein abundance (concentration: 1mM),NP40-soluble protein abundance (concentration: 2mM),NP40-soluble protein abundance (concentration: 4mM),NP40-soluble protein abundance (concentration: 6mM),NP40-soluble protein abundance (concentration: 8mM),NP40-soluble protein abundance (concentration: 10mM)
POLA2 (UniProt Q14181),0.994 ± 0.014,0.974 ± 0.028,1 ± 0.044,1.04 ± 0.03,1.02 ± 0.021,1.03 ± 0.025
UniProt Q14789 and related entries,1.02 ± 0.019,1.06 ± 0.059,1.01 ± 0.012,0.983 ± 0.034,0.9388 ± 0.0075,0.97 ± 0.011
PPID (UniProt Q08752),1.035 ± 0.0079,1.02 ± 0.048,1.01 ± 0.018,0.999 ± 0.013,0.993 ± 0.021,0.98 ± 0.043
MTM1 (UniProt Q13496),0.955 ± 0.016,0.932 ± 0.058,0.994 ± 0.013,0.971 ± 0.013,0.9902 ± 0.0058,0.967 ± 0.013
UniProt Q14687 and related entries,1.06 ± 0.067,1.1 ± 0.022,1.04 ± 0.056,0.992 ± 0.056,0.982 ± 0.044,1.01 ± 0.062
MGAT2 (UniProt Q10469),1.02 ± 0.028,1.01 ± 0.022,1 ± 0.02,0.996 ± 0.024,1 ± 0.028,0.984 ± 0.018
UniProt Q13042 and related entries,0.961 ± 0.02,0.892 ± 0.14,0.971 ± 0.058,0.942 ± 0.081,0.958 ± 0.071,0.931 ± 0.11
UniProt Q13459 and related entries,1.04 ± 0.068,1.06 ± 0.1,1.05 ± 0.087,1.02 ± 0.092,1.02 ± 0.083,1.03 ± 0.12
RRS1 (UniProt Q15050),1.03 ± 0.012,0.997 ± 0.037,0.99 ± 0.035,0.959 ± 0.029,0.978 ± 0.022,0.972 ± 0.015
ITPR3 (UniProt Q14573),0.98 ± 0.044,0.949 ± 0.053,0.964 ± 0.067,0.96 ± 0.097,0.98 ± 0.071,0.976 ± 0.12
CIRBP (UniProt Q14011),1.04 ± 0.033,1.09 ± 0.05,1.1 ± 0.078,1.09 ± 0.025,1.12 ± 0.068,1.21 ± 0.13
UniProt Q14240 and related entries,1.07 ± 0.018,1 ± 0.028,1.09 ± 0.068,1.16 ± 0.026,1.21 ± 0.047,1.18 ± 0.066
UniProt Q14671 and related entries,1 ± 0.027,1.05 ± 0.017,1 ± 0.067,0.98 ± 0.041,0.927 ± 0.032,0.972 ± 0.053
NCAPD2 (UniProt Q15021),0.973 ± 0.022,0.967 ± 0.015,0.987 ± 0.028,0.996 ± 0.018,0.987 ± 0.037,0.97 ± 0.044
UniProt Q13884 and related entries,0.9984 ± 0.004,1.042 ± 0.002,1.02 ± 0.021,1.01 ± 0.039,1.02 ± 0.023,1.02 ± 0.026
MRPL49 (UniProt Q13405),1.01 ± 0.12,0.996 ± 0.05,0.98 ± 0.093,0.941 ± 0.1,0.963 ± 0.09,0.963 ± 0.13
UniProt Q15020 and related entries,1.02 ± 0.019,1.01 ± 0.016,1.03 ± 0.025,1.03 ± 0.014,1.03 ± 0.022,1.04 ± 0.04
TRIM28 (UniProt Q13263),1.02 ± 0.023,1.03 ± 0.049,1.02 ± 0.015,1.03 ± 0.015,1.02 ± 0.033,1.029 ± 0.0084
FHL3 (UniProt Q13643),0.994 ± 0.017,0.988 ± 0.045,0.973 ± 0.037,0.963 ± 0.04,0.93 ± 0.063,0.929 ± 0.062
UniProt Q12800 and related entries,0.98 ± 0.013,0.996 ± 0.066,1.07 ± 0.033,0.957 ± 0.011,0.967 ± 0.045,1.04 ± 0.025

# Whole records from above:
# UniProt Q13884 and related entries is listed as NP40-soluble protein abundance (concentration: 1mM): 0.9984 ± 0.004; NP40-soluble protein abundance (concentration: 2mM): 1.042 ± 0.002; NP40-soluble protein abundance (concentration: 4mM): 1.02 ± 0.021; NP40-soluble protein abundance (concentration: 6mM): 1.01 ± 0.039; NP40-soluble protein abundance (concentration: 8mM): 1.02 ± 0.023; NP40-soluble protein abundance (concentration: 10mM): 1.02 ± 0.026
# G3BP1 (UniProt Q13283) is listed as NP40-soluble protein abundance (concentration: 1mM): 1.1 ± 0.028; NP40-soluble protein abundance (concentration: 2mM): 1.15 ± 0.06; NP40-soluble protein abundance (concentration: 4mM): 1.17 ± 0.05; NP40-soluble protein abundance (concentration: 6mM): 1.19 ± 0.087; NP40-soluble protein abundance (concentration: 8mM): 1.2 ± 0.1; NP40-soluble protein abundance (concentration: 10mM): 1.23 ± 0.086
# UniProt Q13164 is listed as NP40-soluble protein abundance (concentration: 1mM): 1.03 ± 0.018; NP40-soluble protein abundance (concentration: 2mM): 1 ± 0.017; NP40-soluble protein abundance (concentration: 4mM): 1.03 ± 0.024; NP40-soluble protein abundance (concentration: 6mM): 0.993 ± 0.019; NP40-soluble protein abundance (concentration: 8mM): 1 ± 0.016; NP40-soluble protein abundance (concentration: 10mM): 1.01 ± 0.045

# From the supplement of paper PMC6411743
